Values quoted from earlier work, collected in patent US9434822B2, “Block copolymer, micelle preparation, and anticancer agent containing the same as active ingredient” (Nippon Kayaku Kabushiki Kaisha, priority 2004, dated 2016).

Details: cited from earlier work

Structure (SMILES): CC(=O)O[C@H]1C(=O)[C@@]2(C)[C@H]([C@H](OC(=O)c3ccccc3)[C@]3(O)C[C@H](OC(=O)[C@H](O)[C@@H](NC(=O)c4ccccc4)c4ccccc4)C(C)=C1C3(C)C)[C@]1(OC(C)=O)CO[C@@H]1C[C@@H]2O [Paclitaxel alone, paclitaxel]
- water solubility: ≤ 1 µg/mL
